Values quoted from earlier work as cited in patent publication US20050159439A1, “Management of postoperative pain” (priority 2001, published 2005).

System: subjects operated on for lumbar disc herniation
Conditions: free morphine in the epidural space

Q: With CN1CC[C@]23c4c5ccc(O)c4O[C@H]2[C@@H](O)C=C[C@H]3[C@H]1C5 [morphine] as the compound, how does the “Time remaining effective as an analgesic” value read?
A: 6 to 24 h
